We go through two molecules from PMC2727948.

What all share (assay): two-hybrid; yeast two-hybrid in strain DWY112: DnaB fused to the Gal4 activation domain, DnaD forms fused to the Gal4 DNA binding domain (pGBDU-C3); interaction drives ADE2, read as growth on medium lacking adenine
The target of experiment [1] is T1, DBD-DnaD23W188L (DnaD with A166T and W188L, fused to the DNA binding domain of Gal4) (B. subtilis) (UniProt P39787).
T1 sequence: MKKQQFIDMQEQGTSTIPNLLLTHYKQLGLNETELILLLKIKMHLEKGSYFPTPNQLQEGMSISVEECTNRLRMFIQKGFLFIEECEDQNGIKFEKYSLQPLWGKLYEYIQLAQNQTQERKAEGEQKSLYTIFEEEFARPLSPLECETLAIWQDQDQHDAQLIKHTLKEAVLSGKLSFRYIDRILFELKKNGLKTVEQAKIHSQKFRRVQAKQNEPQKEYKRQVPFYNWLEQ

Experiment [2] concerns the target T2, DBD-DnaD23Δ154-155 (DnaD with A166T and the deletion of amino acids 154-155, fused to the DNA binding domain of Gal4) (B. subtilis) (UniProt P39787).
T2 sequence: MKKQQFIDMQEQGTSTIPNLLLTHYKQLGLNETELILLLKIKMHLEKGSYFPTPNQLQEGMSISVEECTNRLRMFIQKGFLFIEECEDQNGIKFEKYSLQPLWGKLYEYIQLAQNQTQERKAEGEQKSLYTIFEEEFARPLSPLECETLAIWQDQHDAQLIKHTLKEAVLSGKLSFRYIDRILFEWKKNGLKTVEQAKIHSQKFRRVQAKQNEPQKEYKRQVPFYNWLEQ

The target of experiment [3] is T3, DBD-DnaD23T148M (DnaD with A166T and T148M, fused to the DNA binding domain of Gal4) (B. subtilis) (UniProt P39787).
T3 sequence: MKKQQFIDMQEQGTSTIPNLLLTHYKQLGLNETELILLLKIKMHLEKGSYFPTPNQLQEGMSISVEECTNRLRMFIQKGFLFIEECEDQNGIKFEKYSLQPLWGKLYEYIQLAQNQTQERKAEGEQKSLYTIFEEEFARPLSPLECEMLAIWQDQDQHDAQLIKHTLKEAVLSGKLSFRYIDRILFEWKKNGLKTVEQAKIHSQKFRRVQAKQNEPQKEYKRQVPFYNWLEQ

Experiment [4] deals with T4, DBD-DnaD (wild type DnaD fused to the DNA binding domain of Gal4) (B. subtilis), P39787.
T4 chain: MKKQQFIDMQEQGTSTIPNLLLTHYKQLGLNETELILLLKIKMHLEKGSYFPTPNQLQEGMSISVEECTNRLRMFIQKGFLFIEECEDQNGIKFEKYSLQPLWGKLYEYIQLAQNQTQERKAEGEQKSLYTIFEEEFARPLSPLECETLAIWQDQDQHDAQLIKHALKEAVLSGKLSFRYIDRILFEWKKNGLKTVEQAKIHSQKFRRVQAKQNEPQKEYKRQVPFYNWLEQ
The settings on record: remark: other sources report otherwise.

No constants are given. Whether binding was seen depends on the method and setting. Some entries that bind do so weakly or less than the wild type. Where a sequence is shown, tags or fusion partners need not be part of it.

B1: AD-DnaB (wild type DnaB fused to the activation domain of Gal4) (protein, UniProt P07908 1-472)
chain: MADYWKDVLPVDPYVVKSRSMLQDIDRQIITQLYQPLIGPVAFSLYMTLWGELEQNRLWGGESTHRQLMGMTQSNLKTIHQEQGKLEGIGLLKVYMKESERQERLFIYELLPPLRPNEFFEDGMLNVFLYNRVGKTKYQQLKQFFTHPAISEDAKDITRPFNHAFESLQPSEWKLTSDMEETVRLAEGSEYTSVGQSPSYTITEDVFDFDLFLAGLSETMIPRKAMTQQVRDTIKKLSYLYGIDPLQMQNVVMSAIDERDVITTEALRKAASDWYQIERNGQLPDLVEKTQPVHLREGEQPAEEDSLDGKLIALLEAISPKKLLQDIADGTEPSKADLKIIEEIMFEQKLEPGVTNVLIYYVMLKTDMKLSKNYIQKIASHWARKKVKTVREAMKLAIEENRQYLEWAEGKTKSSKRNQKVIREEKLPDWMTEKETASDSESGQQKLHPQDLEEQKKKMMEEMQKLKKYSAY
In the case of B1, the results for the binding entry in experiment [1], in experiment [2] and in experiment [3] were “no binding”, “binds” and “no binding”, respectively.

B2: AD-DnaB (wild type DnaB fused to the activation domain of Gal4), P07908 1-472 (protein)
chain: MADYWKDVLPVDPYVVKSRSMLQDIDRQIITQLYQPLIGPVAFSLYMTLWGELEQNRLWGGESTHRQLMGMTQSNLKTIHQEQGKLEGIGLLKVYMKESERQERLFIYELLPPLRPNEFFEDGMLNVFLYNRVGKTKYQQLKQFFTHPAISEDAKDITRPFNHAFESLQPSEWKLTSDMEETVRLAEGSEYTSVGQSPSYTITEDVFDFDLFLAGLSETMIPRKAMTQQVRDTIKKLSYLYGIDPLQMQNVVMSAIDERDVITTEALRKAASDWYQIERNGQLPDLVEKTQPVHLREGEQPAEEDSLDGKLIALLEAISPKKLLQDIADGTEPSKADLKIIEEIMFEQKLEPGVTNVLIYYVMLKTDMKLSKNYIQKIASHWARKKVKTVREAMKLAIEENRQYLEWAEGKTKSSKRNQKVIREEKLPDWMTEKETASDSESGQQKLHPQDLEEQKKKMMEEMQKLKKYSAY
In the case of B2, the binding entry in experiment [4] was “no binding”.
